Assay results as given in US20090136482A1, “DRUG TARGET PROTEIN AND TARGET GENE, AND SCREENING METHOD” (REVERSE PROTEOMICS RESEARCH INSTITUTE CO., LTD., priority 2005, published 2009).
At least one structure is not confirmed: it was looked up by name or label, or the drawing left a doubt.

Legend:
FLJ14583-derived protein = target: T1, FLJ14583-derived protein (Homo sapiens, UniProt Q12816); experiment: Biacore S51 surface plasmon resonance interaction analysis with FLJ14583-derived protein; format: binding
T1 sequence (Q12816 1-1431): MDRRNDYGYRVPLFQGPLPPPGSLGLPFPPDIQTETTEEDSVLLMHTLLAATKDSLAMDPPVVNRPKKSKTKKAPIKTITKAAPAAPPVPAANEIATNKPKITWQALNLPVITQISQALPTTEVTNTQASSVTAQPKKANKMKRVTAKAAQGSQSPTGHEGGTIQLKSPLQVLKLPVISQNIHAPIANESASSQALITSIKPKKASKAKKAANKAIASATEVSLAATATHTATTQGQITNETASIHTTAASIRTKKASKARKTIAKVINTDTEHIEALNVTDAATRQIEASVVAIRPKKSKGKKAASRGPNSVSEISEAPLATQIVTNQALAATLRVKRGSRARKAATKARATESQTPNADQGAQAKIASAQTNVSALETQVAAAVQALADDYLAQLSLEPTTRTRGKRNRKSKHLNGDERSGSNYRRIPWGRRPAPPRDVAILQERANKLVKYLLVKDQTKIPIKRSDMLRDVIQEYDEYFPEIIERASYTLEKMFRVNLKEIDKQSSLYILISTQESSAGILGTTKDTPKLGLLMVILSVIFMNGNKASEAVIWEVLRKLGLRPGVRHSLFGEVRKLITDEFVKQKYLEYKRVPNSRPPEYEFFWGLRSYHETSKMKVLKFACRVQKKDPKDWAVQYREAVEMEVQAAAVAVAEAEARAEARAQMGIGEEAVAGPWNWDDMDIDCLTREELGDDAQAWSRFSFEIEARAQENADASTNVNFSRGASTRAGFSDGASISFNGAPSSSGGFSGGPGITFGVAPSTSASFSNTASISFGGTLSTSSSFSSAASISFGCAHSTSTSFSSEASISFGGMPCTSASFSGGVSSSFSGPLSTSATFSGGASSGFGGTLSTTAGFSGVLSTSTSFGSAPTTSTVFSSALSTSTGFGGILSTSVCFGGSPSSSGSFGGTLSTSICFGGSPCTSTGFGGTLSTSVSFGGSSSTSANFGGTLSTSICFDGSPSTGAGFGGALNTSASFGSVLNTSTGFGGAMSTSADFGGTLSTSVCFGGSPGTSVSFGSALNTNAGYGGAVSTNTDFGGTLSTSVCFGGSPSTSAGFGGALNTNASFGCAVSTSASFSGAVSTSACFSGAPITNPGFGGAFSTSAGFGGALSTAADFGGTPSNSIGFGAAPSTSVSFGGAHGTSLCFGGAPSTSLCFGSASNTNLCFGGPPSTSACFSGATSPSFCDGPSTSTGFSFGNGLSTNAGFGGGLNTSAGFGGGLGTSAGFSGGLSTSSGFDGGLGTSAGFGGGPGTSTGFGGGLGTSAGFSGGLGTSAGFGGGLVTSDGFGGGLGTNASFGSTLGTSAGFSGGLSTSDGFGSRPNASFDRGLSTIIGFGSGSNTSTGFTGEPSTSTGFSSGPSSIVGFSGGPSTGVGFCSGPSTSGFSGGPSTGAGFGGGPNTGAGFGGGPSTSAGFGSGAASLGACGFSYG
Description: The obtained plasmids were subjected to phenol/chloroform treatment and the inactivation treatment of RNase according to the PROTEIOS (TOYOBO) protocol to give purified expression plasmids.
The surface of a CM5 sensor chip for S51 (commercially available from Biacore) was converted to NTA using 1 M EDC, 1.33 M NHS, and 16 mg/ml AB-NTA (pH 9.2) to give an NTA sensor chip for S51. […] The immobilization was performed by sequentially injecting 0.5 M NiCl2, 0.4 M EDC, […], a ligand (protein) solution, and 1 M ethanolamine (pH 8.5) into the passage system of Biacore S51. […] For the correction (solvent correction) of the effect of DMSO contained in the compound solutions and the running buffer, the same solutions as the running buffer containing 3.8 to 5.1% DMSO (8 points) were prepared to perform correction based on the measurement results of these solutions.

FLJ12435-derived protein = target: T2, FLJ12435-derived protein (Homo sapiens, UniProt Q96AQ6); experiment: Biacore S51 surface plasmon resonance interaction analysis with FLJ12435-derived protein; format: binding
T2 construct: fused on or other part: N-terminal histidine tag and FLAG tag, with Gateway linker residues
T2 sequence (Q96AQ6 1-731): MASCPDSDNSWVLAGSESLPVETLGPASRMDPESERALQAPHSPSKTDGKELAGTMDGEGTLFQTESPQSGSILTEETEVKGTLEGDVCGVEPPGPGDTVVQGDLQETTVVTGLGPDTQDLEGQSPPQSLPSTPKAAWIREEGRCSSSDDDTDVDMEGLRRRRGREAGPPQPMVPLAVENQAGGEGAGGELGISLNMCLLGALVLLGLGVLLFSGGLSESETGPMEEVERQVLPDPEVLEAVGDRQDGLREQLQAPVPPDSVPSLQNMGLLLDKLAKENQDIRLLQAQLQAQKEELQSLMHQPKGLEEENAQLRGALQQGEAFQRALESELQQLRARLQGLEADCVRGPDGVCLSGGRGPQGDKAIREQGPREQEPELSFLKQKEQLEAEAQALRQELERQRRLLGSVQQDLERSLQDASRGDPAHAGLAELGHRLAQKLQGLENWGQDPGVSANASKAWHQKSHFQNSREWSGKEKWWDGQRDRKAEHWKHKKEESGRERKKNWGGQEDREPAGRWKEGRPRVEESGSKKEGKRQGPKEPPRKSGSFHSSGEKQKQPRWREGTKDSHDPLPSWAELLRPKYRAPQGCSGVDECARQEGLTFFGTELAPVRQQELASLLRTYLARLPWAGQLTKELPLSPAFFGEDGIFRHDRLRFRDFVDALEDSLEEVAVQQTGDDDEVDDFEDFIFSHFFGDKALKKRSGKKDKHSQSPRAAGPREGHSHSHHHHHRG

C[C@@H](O)[C@H]1C(=O)N2C(C(=O)O)=C(SCCN=CN)C[C@H]12 [imipenem]
interaction with the protein (dose-dependent binding amount, saturation at high doses) (FLJ14583-derived protein): specifically interact
interaction with the protein (dose-dependent binding amount, saturation at high doses) (FLJ12435-derived protein): specifically interact
